Data as given in patent publication US20100113430A1, “THIOXANTHENE DERIVATES USEFUL TO TREAT INFECTIOUS DISEASES” (BKG PHARMA APS, priority 2007, published 2010).

System: clinically relevant resistant bacterial isolate S. Aureus
Assay: Growth inhibition by cis/trans combinations, resistant isolate S. Aureus
Assay type: cell-based
Details: Cis-compound 16 μg/ml, Trans-compound 0 μg/ml; MIC(cis alone)/MIC(cis in cis-trans mixture) × 100
Experimental: Cell growth was tested using the Minimal Inhibitory Concentration (MIC) susceptibility tests by use of the microdilution broth method in accordance to the NCCLS Guidelines (NCCLS Guidelines, Methods for Dilution Antimicrobial Susceptibility Tests for Bacteria That Grow Aerobically; Approved Standard, Sixth Edition, Volume 23; Number 2). The minimum inhibitory concentration (MIC), is defined ad the lowest concentration of drug which inhibits growth of the test organism, in the sense that no visible growth is detected (total inhibition of growth). In example 2 MIC of the compounds used on fungal microorganisms was determined from the IC90 measurements according to NCCLS Guidelines.
A log phase culture of bacteria was diluted with fresh pre-warmed Mueller-Hinton medium and adjusted to a defined OD at 600 nm in order to give a final concentration of 1×10^4-5 bacteria/ml medium. The bacterial culture was transferred to microtiter-plates and culture was added to each well. Drug was added to the bacterial culture in the wells as two-fold dilution series of drug in order to give final concentrations ranging from 0.03 to 128 μg/ml. Trays were incubated at 37° C. by shaking in a robot analyzer, PowerWavex, software KC^4′ Kebo.Lab, Copenhagen, for 16 h and optical densities were measured at 600 nm during the incubation time in order to record growth curves. […]

## Clc1ccc2c(c1)/C(=C\CCN1CCNCC1)c1ccccc1S2 [N-dealkyl-cis-clopenthixol, cis-1-(3-(2-chlorothioxanthen-9-ylidene)propyl)piperazine]
  Effect index (cis-compound): 100
